According to patent publication US10167453B2, “Saccharide oxidase, and production method for same and use of same” (AMANO ENZYME INC., priority 2012, dated 2019):

Assays:
[1] = Easiness in handling unbaked bread preparation (dough); details: for handling and stickiness of the unbaked preparation (in words): 17 U enzyme, or 50 ppm hemicellulase or ascorbic acid
[2] = Production of bread, volume and hardness

Molecule	handling and stickiness of the unbaked preparation (in words) [1]	hardness of the bread ([2]; 10 U enzyme, maximum load at 10 mm compression, Day 1 and Day 4, compared with the glucose oxidase)	volume of the bread ([2]; 10 U enzyme, rapeseed substitution method)	stickiness of the unbaked preparation ([2]; compared with the glucose oxidase)	appearance of the unbaked preparation by visual inspection ([1]; 17 U enzyme)
O=C1O[C@H]([C@@H](O)CO)C(O)=C1O [Ascorbic acid, ascorbic acid, reference compound]	didn't deposit on the machine				
Saccharide oxidase: protein having saccharide oxidase activity purified from Acremonium chrysogenum NBRC30055, about 63 kDa, amino acid sequence SEQ. ID. NO:10 (protein, listed as Acremonium chrysogenum) MRSLAPLLSIAALARASPVDTSLLTRQETLNTCLEAAELSYVDVNSEDWEDAIVPHNLRVPVVPRAVVYATATEQIQAAVKCAVESEIRVSAKSGGHSYASMGLGGEDGSLVIQLDHWHDVTLRDDNTAVVSAGTRLGVVALELYAQGKRGISHGTCPSVGVGGHVVHGGYGFSSHTHGLALDAVVGANVVLADGSLVHASETENTDLFWALRGGGSSFGIVAEFEFETFDVSHNFSYFSIDSDISQETAEEATASLLAFQDALEEGLMDRKLNMRLSLGRPKVTLEAVYHGAKEDGRKALELFDDILGLNWSSNRTRANEADWLTMLESWTYGDPLNITYPYEGHDNAYTSSLVTRHIPEDAMASFMTYWKGVGQDRETPNWWLQMDVHGDANSRISEVDADSTAYSHRDKLWLFQFSSPLNPLRPDPEAAFALVNGYMDSIKDHLGDGEWGRYANYIDSELSREDAQTQYWSDHLDKLQAIKAELDPTQVFYNPQSIDPAAVE	didn't deposit on the machine	increase in the hardness	allowed the volume to be reduced	reduced stickiness	network appearance
